Consider one substance from paper PMC12440826, “Shigella flexneri evades LPS ubiquitylation through IpaH1.4-mediated degradation of RNF213” (Nature Structural & Molecular Biology, 2025).

By UniProt entry, the sequences of proteins in these tests, tags left out.
UniProt Q63HN8: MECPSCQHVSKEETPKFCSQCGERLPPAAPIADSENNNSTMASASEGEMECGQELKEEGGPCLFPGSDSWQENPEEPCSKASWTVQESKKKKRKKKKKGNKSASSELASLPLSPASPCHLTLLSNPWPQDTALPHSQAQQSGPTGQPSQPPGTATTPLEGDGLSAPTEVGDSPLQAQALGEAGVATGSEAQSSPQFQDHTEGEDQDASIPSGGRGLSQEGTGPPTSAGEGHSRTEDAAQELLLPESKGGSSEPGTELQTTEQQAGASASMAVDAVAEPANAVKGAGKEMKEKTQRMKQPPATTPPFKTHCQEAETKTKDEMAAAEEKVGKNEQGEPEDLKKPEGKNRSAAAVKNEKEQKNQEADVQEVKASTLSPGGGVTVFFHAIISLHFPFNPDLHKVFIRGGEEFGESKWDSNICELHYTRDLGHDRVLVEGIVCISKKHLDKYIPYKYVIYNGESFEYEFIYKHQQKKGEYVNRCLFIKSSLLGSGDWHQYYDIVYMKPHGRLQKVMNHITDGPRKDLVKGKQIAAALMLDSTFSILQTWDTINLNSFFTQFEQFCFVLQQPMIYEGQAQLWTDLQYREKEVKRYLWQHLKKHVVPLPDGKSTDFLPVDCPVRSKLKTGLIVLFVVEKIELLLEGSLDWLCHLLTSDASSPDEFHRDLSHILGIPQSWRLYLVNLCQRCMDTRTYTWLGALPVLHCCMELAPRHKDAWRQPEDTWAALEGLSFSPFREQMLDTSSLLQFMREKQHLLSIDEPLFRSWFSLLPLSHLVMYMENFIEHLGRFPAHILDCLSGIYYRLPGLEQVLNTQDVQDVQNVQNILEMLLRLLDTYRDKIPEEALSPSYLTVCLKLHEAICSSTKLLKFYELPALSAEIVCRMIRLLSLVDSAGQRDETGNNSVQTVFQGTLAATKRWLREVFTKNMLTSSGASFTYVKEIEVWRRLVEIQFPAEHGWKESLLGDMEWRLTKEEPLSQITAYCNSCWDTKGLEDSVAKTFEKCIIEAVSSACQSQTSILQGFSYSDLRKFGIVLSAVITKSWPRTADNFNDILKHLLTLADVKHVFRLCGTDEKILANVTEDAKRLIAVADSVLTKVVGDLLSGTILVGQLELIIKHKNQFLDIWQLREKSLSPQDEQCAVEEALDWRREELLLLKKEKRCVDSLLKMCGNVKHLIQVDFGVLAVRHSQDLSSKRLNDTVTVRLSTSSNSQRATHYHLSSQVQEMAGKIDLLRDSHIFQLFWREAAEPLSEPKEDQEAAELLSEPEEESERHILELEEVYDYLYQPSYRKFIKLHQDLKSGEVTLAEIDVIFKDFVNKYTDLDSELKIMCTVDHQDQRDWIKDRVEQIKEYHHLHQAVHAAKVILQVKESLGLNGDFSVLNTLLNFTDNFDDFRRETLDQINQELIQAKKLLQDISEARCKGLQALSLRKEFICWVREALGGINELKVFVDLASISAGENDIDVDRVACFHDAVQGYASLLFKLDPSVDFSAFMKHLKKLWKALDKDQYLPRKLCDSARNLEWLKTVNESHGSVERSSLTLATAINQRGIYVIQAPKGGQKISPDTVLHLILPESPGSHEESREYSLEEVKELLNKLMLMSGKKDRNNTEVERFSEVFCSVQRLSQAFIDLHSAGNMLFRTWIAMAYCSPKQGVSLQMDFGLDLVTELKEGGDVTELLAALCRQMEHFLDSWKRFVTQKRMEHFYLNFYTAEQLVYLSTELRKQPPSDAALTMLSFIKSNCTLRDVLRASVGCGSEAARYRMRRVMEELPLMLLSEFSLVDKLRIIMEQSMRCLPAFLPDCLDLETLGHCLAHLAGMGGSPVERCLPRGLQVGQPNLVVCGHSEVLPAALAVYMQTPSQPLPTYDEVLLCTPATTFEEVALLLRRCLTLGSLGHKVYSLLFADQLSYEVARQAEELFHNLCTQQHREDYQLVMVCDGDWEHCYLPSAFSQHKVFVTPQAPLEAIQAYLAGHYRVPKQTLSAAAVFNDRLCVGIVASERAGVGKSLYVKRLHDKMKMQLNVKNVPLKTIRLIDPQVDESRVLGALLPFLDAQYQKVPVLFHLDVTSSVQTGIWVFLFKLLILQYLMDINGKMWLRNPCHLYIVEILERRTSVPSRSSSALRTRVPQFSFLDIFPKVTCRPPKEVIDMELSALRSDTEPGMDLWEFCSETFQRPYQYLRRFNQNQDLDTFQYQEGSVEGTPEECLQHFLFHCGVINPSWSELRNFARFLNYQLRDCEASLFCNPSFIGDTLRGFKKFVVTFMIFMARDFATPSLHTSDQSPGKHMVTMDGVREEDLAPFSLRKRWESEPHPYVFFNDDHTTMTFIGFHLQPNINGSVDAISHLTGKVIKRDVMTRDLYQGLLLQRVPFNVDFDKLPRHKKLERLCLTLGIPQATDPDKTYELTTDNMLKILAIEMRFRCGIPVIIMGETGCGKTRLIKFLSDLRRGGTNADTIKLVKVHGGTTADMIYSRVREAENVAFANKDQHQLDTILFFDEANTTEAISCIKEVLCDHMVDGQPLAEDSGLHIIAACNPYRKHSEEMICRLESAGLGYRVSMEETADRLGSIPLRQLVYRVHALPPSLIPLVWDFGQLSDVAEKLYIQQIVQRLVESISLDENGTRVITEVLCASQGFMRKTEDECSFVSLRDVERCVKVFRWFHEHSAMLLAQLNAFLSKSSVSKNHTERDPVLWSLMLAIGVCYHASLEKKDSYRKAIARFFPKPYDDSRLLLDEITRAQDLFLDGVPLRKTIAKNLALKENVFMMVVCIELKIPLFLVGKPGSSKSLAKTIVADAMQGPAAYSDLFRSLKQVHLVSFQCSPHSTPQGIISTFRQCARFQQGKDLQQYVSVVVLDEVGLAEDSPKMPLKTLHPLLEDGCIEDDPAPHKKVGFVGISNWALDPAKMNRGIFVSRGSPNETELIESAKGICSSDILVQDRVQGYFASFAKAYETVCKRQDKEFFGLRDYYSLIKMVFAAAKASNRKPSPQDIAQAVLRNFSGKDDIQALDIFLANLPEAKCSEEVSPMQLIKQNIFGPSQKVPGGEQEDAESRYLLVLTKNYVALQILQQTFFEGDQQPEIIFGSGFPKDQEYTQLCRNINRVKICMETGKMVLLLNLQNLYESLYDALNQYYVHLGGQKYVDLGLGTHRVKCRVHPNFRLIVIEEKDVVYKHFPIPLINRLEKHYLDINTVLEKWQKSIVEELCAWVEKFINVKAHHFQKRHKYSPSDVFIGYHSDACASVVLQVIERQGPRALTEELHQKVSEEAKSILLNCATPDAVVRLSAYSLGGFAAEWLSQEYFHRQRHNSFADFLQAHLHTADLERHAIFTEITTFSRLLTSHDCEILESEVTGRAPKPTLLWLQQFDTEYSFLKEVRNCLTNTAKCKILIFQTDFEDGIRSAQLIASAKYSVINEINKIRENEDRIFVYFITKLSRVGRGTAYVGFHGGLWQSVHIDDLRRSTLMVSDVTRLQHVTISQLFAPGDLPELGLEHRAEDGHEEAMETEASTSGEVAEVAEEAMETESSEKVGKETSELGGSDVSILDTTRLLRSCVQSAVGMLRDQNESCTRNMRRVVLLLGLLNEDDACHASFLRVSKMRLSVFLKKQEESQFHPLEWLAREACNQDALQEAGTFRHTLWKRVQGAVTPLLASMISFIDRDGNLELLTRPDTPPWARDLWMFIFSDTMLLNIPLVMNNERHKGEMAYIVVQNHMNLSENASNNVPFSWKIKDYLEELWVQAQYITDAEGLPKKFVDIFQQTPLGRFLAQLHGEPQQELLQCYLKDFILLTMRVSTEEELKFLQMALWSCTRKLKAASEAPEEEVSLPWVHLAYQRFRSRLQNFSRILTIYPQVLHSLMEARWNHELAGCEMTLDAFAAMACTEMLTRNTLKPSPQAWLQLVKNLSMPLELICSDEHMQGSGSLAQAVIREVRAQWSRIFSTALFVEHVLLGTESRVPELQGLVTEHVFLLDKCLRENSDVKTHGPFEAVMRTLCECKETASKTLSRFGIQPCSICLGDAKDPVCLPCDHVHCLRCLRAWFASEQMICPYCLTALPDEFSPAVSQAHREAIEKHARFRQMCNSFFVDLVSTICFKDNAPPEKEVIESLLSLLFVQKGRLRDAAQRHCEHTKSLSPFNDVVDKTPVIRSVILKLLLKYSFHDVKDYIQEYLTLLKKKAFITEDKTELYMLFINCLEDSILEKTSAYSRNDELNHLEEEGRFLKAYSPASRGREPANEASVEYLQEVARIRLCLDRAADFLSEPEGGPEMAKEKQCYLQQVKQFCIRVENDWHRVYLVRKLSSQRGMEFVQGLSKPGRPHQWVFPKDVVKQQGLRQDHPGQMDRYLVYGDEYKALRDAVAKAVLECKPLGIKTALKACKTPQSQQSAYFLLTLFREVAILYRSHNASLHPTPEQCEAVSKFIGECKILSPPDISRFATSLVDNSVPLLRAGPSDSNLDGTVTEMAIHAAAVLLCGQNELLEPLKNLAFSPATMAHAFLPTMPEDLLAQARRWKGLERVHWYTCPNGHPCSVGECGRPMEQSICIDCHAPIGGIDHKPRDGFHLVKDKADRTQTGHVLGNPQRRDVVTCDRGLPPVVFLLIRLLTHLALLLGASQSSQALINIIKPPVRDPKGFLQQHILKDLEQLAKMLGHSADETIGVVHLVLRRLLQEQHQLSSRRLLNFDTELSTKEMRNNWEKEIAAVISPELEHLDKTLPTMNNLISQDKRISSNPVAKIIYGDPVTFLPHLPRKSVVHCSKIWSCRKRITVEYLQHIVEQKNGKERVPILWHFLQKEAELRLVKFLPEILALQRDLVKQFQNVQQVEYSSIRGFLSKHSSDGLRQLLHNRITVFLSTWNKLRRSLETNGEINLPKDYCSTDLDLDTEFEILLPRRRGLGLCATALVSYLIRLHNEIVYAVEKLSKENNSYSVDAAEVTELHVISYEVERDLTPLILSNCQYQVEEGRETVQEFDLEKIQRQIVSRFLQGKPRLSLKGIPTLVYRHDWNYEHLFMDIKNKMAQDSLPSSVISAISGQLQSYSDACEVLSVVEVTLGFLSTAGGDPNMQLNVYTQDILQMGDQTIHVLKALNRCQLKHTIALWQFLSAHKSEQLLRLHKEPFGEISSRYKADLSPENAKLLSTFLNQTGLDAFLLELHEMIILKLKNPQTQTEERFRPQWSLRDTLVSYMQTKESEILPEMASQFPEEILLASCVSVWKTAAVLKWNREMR

In the experiment the target is GST–IpaH1.4 (WT, for the binding-mutant pull-downs) (S. flexneri). Kind of experiment: pull-down; bacterial lysate with overexpressed GST–IpaH1.4 (WT or binding mutants) applied to GST–Sepharose resin; 293ET lysates with Flag–GFP–RNF213 (WT or binding mutants); washed beads boiled in Laemmli buffer, immunoblot.

These are yes or no findings as the source states them, for the method shown. Binding seen in cells or lysates may run through a third protein. Binding calls can cover weak binding; strength is not graded here.

For the substance “Flag–GFP–RNF213 (WT) (from UniProt Q63HN8 1-5207) (enzyme)”, the binding entry is “binds”.
